Measured values from article PMC7979749, “Structural basis of the dynamic human CEACAM1 monomer-dimer equilibrium” (Communications Biology, 2021).
These are yes or no findings as the source states them, for the method shown. Some binding calls cover weakened binding; strength is not graded here.

Columns and labels:
[1] = target: human CEACAM1 IgV domain, wildtype (human) (UniProt P13688); assay: NMR titration; 15N-HSQC spectra at varying protein concentration (N97A 16-500 μM; WT 10 μM and 1 mM); 10 mM HEPES, 50 mM NaCl, pH 7.0, 25 °C; dimer to monomers; rough estimate from peak trajectories of Q44 and A49; both purified
[2] = target: human CEACAM1 IgV domain, I91A mutant (human) (UniProt P13688); assay: SEC-MALS; samples at 100 μM injected onto TSK-gel Bioassist G4SWxl, 10 mM HEPES pH 7.4, 150 mM, 0.5 mL/min; self-association, monomer to dimer; both purified

Row | binding [1] | binding [2] | Binder
1 | binds | – | human CEACAM1 IgV domain, wildtype (domain or fragment, Carcinoembryonic antigen-related cell adhesion molecule 1 (CEACAM1), human, N-terminal IgV domain; NMR samples were 15N/13C or 15N/13C/2H labelled; also called hCEACAM1 WT IgV; WT; source: isotope-labelled samples expressed from E. coli in M9 minimal medium, purified) AQLTTESMPFNVAEGKEVLLLVHNLPQQLFGYSWYKGERVDGNRQIVGYAIGTQQATPGPANSGRETIYPNASLLIQNVTQNDTGFYTLQVIKSDLVNEEATGQFHVY
2 | – | binds weakly | human CEACAM1 IgV domain, I91A mutant (domain or fragment, unglycosylated) QLTTESMPFNVAEGKEVLLLVHNLPQQLFGYSWYKGERVDGNRQIVGYAIGTQQATPGPANSGRETIYPNASLLIQNVTQNDTGFYTLQVAKSDLVNEEATGQFHVY
